The target of this experiment is human CD40 on human CD40 transgenic (hCD40Tg) mouse B cells (human) (UniProt P25942). In words: flow cytometry on cells; purified hCD40Tg mouse splenic B cells incubated with or without mAb (m1 isotype), then hexameric mCD40L-h1Fc; bound CD40L detected with anti-human-FITC; only the binder purified.

Protein sequences, listed by entry. Tags and fused reporters are not part of them. Residues count along the entry.
UniProt P25942, residues 21-277: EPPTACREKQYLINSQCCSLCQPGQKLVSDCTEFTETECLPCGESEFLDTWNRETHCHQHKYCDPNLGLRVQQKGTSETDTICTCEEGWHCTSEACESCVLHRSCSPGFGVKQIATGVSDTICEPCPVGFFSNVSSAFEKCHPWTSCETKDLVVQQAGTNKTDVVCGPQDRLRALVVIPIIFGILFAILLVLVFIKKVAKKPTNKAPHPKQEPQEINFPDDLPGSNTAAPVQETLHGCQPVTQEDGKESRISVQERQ
UniProt P27548, residues 112-260: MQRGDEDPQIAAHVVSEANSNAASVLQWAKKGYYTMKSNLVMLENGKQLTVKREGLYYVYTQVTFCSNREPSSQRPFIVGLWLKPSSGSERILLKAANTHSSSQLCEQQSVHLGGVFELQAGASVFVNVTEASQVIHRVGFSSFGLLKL

Among the data in article PMC5896247 are binding values, retold here.

These are yes or no findings as the source states them, for the method shown. Some entries that bind do so weakly or less than the wild type.

With “hexameric mCD40L-h1Fc (from UniProt P27548 112-260) (Fc fusion)”, the binding result is “binds”.
